The values that follow come from paper PMC9081086 (RSC Advances, 2018).

Some peptides are written in HELM: one residue between dots, names in brackets for other building blocks, links after the first $.

The series is described as follows: general procedure: Fmoc solid-phase peptide synthesis; Rink Amide MBHA resin (0.33 mmol g^-1 loading); Oxyma/DIC; HATU/HOAT/DIPEA for S5/R8 residues. The following applies: whole synthesis, scale of the general procedure 350 mg resin, 0.33 mmol g^-1 loading capacity.

On to “PEPTIDE1{I.K.L.S.P.E.T.K.D.N.L.K.K.V.L.K.[S5].A.I.K.[S5].A.I.A.V.A.K.M.V.[am]}$PEPTIDE1,PEPTIDE1,17:R3-21:R3$$$V2.0”, for which the isolated yield is given as 18.47%.
